Experiment: in vitro
Settings: human, Caco-2, Papp A-B
Protocol: In the permeability experiments inserts with Caco-2 cell layers grown for 3 weeks were transferred to 12-well plates containing 1.5 mL Ringer–Hepes buffer in the lower (basal or acceptor) compartments. In the upper or apical compartments culture medium was replaced by 0.5 mL buffer containing peptide solutions: PN159 peptide at 1, 3, 10 and 30 μM concentrations and CPPs at 100 μM concentration. […] The incubation with permeability markers in the presence of PN159 peptide lasted for 30 min. In case of CPPs the incubation time with fluorescein was 1-h. Samples were collected from both compartments and the concentrations of the marker molecules were determined by a fluorescence multi-well plate reader (Fluostar Optima; excitation wavelength: 485 nm, emission wavelength: 535 nm in the case of fluorescein and excitation wavelength: 584 nm, emission wavelength: 680 nm in the case of Evans-blue labeled albumin). Fluorescein isothiocyanate (FITC)-labelled dextran marker molecules (Table 1) were used at 1 mM concentrations, and fluorescence intensities of collected samples were measured using a Fluorolog FL3-22 (Horiba Jobin Yvon, Paris, France) spectrofluorometer using 492 nm excitation wavelength, 515 nm emission wavelength, and 0.5 s integration time. Drugs were used at 10 μM concentrations and samples were measured by HPLC as described below. […]

Papp A→B at 30 min, 10 μM (PN159 treated): 36.3 ± 1.9 ×10⁻⁶ cm/s
Papp A→B at 30 min, 10 μM (control): 1.2 ± 0.3 ×10⁻⁶ cm/s
SMILES: CC(C)NCC(O)COc1ccc(CC(N)=O)cc1 (centres unmarked) [atenolol]

Source: article PMC6410202, “Dual Action of the PN159/KLAL/MAP Peptide: Increase of Drug Penetration across Caco-2 Intestinal Barrier Model by Modulation of Tight Junctions and Plasma Membrane Permeability” (Pharmaceutics, 2019)
